The supplement of paper PMC10849652
Some of the results follow.

The chains behind the UniProt entries cited, without tags or fusion partners. Where a name states a change or a piece, a line headed by the entry shows the natural chain unless it says otherwise.
UniProt Q9NUQ6: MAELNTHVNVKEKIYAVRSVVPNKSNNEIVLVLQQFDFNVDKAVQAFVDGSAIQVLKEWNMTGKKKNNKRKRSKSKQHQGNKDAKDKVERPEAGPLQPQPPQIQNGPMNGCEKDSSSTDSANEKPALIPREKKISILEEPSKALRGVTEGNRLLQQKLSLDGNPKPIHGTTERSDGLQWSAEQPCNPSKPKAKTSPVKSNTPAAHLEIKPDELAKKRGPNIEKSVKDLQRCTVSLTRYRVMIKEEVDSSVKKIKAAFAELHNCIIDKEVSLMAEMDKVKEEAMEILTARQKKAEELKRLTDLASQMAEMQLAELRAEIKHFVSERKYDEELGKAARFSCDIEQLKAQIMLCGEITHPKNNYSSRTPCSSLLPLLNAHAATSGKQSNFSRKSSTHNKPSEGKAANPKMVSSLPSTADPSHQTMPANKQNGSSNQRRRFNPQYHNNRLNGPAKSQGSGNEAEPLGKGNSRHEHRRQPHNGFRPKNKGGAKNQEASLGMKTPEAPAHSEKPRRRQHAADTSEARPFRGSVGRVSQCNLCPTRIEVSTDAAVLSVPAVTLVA
UniProt Q96JI7: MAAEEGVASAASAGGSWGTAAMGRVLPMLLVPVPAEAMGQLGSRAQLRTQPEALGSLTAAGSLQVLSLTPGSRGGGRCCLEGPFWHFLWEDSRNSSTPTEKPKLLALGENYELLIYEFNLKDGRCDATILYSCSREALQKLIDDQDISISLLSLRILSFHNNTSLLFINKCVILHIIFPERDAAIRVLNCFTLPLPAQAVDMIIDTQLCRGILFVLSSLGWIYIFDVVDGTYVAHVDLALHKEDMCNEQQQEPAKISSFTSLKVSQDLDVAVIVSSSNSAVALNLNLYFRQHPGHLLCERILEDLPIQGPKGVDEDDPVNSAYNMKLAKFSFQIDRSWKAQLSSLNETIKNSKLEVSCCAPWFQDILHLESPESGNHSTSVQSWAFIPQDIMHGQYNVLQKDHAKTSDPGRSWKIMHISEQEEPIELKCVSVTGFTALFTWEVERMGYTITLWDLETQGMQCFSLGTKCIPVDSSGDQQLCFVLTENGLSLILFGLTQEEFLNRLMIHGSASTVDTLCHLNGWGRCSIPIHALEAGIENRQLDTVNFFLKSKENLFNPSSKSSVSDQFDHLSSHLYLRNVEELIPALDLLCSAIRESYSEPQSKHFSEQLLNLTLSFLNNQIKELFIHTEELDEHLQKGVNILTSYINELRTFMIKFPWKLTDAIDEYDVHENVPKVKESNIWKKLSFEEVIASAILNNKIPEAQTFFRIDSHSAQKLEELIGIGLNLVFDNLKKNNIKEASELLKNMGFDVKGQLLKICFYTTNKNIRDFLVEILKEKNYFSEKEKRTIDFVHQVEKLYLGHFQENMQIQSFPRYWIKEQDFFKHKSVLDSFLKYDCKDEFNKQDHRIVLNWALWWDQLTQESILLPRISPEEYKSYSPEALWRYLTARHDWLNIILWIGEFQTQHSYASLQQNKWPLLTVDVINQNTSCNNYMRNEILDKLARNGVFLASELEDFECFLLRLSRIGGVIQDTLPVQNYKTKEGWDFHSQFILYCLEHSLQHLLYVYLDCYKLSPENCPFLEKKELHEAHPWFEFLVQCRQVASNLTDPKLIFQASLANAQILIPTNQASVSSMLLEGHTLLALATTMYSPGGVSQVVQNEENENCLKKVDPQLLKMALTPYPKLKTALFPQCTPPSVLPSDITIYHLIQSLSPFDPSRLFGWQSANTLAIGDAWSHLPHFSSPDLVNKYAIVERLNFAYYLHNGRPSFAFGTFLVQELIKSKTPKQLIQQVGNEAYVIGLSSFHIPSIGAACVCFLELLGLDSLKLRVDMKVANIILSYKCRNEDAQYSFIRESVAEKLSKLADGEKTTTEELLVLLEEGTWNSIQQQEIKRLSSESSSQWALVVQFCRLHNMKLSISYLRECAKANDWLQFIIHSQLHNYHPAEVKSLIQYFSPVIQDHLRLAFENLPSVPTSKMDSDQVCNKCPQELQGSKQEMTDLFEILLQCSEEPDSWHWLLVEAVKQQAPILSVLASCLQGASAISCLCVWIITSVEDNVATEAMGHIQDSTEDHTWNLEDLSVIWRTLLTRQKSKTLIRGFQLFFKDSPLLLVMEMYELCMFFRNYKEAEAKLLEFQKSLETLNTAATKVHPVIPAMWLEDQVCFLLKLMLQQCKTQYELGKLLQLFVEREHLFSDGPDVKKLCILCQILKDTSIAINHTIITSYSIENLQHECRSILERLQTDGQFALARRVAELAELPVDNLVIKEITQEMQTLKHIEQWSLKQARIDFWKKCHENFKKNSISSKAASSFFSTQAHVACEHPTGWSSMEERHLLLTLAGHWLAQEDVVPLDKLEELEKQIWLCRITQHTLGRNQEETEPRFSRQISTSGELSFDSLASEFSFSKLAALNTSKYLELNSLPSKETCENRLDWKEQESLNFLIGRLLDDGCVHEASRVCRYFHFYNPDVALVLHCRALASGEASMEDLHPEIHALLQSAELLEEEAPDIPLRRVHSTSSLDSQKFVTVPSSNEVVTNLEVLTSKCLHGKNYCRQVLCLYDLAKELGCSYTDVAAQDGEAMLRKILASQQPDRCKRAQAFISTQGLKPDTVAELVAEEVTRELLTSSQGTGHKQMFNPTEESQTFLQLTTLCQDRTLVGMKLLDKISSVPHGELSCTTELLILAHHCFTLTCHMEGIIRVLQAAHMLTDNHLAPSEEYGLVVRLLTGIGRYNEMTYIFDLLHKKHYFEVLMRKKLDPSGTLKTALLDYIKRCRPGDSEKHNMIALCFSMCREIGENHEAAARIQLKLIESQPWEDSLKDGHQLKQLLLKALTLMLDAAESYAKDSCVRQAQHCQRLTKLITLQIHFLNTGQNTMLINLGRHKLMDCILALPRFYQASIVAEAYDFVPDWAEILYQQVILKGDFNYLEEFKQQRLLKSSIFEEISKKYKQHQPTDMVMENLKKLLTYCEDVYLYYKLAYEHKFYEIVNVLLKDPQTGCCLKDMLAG
UniProt Q01082, whole entry, looked up: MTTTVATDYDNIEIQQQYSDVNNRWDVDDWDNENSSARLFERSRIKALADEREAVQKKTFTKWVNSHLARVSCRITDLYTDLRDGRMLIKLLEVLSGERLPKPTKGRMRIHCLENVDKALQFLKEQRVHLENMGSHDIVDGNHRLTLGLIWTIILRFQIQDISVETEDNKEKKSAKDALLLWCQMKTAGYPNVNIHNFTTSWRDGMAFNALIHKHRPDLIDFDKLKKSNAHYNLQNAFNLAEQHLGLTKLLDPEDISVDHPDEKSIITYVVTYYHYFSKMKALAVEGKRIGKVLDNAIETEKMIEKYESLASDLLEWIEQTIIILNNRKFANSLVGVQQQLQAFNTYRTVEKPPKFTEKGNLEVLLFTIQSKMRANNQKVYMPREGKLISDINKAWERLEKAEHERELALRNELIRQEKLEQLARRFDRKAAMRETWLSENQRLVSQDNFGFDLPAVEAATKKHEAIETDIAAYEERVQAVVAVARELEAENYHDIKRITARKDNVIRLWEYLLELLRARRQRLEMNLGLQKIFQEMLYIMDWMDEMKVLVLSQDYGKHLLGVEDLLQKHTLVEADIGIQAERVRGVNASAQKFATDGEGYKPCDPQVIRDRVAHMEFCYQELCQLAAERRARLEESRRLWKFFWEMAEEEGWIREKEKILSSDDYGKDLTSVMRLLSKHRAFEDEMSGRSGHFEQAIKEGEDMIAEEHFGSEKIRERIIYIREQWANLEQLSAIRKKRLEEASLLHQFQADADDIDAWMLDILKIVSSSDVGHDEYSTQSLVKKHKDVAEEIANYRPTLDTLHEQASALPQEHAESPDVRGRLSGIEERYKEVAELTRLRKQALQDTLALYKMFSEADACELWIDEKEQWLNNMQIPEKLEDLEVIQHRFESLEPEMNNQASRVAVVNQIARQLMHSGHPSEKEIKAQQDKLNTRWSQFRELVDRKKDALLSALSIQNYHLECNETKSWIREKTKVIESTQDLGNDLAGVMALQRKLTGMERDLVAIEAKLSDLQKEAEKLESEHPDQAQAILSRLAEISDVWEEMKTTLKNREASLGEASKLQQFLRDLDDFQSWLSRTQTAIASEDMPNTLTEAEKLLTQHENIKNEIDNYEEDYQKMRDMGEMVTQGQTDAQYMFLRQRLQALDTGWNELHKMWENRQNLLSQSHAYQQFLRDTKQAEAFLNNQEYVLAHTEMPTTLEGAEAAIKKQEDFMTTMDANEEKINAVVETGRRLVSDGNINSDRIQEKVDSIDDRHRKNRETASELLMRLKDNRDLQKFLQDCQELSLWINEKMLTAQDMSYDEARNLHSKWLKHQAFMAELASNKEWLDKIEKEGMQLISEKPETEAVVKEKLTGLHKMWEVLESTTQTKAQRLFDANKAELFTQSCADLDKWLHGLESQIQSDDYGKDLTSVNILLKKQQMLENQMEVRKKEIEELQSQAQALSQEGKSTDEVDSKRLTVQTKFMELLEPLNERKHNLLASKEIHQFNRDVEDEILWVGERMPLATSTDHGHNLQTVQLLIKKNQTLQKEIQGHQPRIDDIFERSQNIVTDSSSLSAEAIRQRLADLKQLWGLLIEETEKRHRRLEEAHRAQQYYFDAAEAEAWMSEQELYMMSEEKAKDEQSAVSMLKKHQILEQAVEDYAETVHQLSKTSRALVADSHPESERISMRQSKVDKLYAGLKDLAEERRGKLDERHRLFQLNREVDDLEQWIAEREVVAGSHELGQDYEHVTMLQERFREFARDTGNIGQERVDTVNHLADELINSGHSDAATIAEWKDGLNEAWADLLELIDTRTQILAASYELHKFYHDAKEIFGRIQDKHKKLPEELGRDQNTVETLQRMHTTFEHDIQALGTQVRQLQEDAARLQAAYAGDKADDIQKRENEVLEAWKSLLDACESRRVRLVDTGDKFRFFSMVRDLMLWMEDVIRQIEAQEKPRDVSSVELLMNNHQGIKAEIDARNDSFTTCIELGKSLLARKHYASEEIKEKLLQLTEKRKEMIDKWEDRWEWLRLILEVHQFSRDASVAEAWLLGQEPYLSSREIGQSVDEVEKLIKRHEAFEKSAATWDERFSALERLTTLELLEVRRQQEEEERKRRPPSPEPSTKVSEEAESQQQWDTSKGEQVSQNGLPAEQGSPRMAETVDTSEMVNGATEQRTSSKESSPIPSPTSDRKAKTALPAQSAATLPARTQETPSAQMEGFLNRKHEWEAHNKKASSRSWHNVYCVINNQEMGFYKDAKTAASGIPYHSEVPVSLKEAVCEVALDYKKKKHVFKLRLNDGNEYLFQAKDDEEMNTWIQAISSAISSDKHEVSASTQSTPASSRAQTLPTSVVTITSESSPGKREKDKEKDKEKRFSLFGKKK
UniProt P49458: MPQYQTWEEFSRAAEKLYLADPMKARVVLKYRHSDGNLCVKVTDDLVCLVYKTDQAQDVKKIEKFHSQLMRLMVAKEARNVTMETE
UniProt Q658P3: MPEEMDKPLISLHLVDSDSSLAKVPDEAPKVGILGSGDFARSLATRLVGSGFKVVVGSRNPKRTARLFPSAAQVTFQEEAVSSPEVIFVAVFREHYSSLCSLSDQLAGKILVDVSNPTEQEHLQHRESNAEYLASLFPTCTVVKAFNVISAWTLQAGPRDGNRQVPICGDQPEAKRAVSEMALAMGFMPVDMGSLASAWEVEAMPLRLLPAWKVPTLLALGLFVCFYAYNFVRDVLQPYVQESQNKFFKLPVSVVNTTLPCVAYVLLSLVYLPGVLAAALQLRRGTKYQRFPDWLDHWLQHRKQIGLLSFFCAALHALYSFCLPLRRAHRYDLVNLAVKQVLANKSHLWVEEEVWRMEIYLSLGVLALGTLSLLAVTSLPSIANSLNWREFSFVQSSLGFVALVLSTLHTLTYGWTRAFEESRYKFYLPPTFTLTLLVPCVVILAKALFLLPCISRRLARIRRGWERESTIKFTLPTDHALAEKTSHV
UniProt Q9NSC7: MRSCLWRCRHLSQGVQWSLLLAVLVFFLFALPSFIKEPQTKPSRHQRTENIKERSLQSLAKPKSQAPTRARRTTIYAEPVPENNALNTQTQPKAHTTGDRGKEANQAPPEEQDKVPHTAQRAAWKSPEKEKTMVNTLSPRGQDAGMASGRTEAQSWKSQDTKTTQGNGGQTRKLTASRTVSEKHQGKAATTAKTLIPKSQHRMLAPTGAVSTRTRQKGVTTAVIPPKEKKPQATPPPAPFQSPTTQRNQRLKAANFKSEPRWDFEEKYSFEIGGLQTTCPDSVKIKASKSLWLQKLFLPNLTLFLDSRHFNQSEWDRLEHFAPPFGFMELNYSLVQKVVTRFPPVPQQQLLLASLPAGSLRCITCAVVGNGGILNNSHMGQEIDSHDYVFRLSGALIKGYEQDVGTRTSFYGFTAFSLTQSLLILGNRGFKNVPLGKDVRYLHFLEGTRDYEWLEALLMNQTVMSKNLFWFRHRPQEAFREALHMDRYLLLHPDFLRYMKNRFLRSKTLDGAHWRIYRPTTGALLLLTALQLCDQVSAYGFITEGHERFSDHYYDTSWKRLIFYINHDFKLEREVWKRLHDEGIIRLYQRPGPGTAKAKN

compound: NC(=O)Nc1cc(-c2cccc(F)c2)sc1C(=O)N[C@H]1CCCNC1; test: log2 fold change, soluble protein after heating vs DMSO (PISA); higher = thermal stabilisation; K562 lysate, 10 uM; active = over 0.2 and 3.5 SD of the protein, either way, in both replicates (recomputed)
Summary of the method: (§1)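 A 30 min treatment with 10 μM compound was applied to crude K562 extract at 1 mg/mL protein in PBS pH 7.4 with 1 mM MgCl2. Heating for 3 min spanned 48°C-58°C, after which aliquots were pooled, adjusted to 0.5% NP-40 at 4°C and spun at 21,000xg for 90 min. TMTpro 16plex LC-MS/MS of the supernatant, with channel sums equalised, gave values recorded as log-two fold change in thermal stability against solvent controls, from duplicates.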

log2 fold change, inactive:
SPATS2L isoform 2 (UniProt Q9NUQ6) -0.059
SPG11 (UniProt Q96JI7) -0.017
STAU1 isoform 3 (UniProt O95793) 0.088
STAR (UniProt P49675) -0.135
SPTBN1 isoform 3 (UniProt Q01082) -0.046
SRP9 (UniProt P49458) -0.053

compound: NC(=O)c1cnc(N[C@@H]2CCCC[C@@H]2N)nc1Nc1cccc(-n2nccn2)c1; test: as above
Summary of the method: as §1

log2 fold change, inactive:
STEAP3 isoform 2 (UniProt Q658P3) 0.015
STAT3 isoform 2 (UniProt P40763) 0
SPOUT1 (UniProt Q5T280) 0.027
SRSF7 (UniProt Q16629) 0.019
SREK1IP1 (UniProt Q8N9Q2) -0.07
SPTAN1 (UniProt Q13813) 0.009
SSX2 (UniProt Q16385) -0.072
STARD3NL (UniProt O95772) 0.073
SPATS2 (UniProt Q86XZ4) -0.005
SPG21 (UniProt Q9NZD8) 0.061
STARD9 (UniProt Q9P2P6) 0.058
STAMBP (UniProt O95630) 0.005
SSU72 (UniProt Q9NP77) -0.013
SPINDOC (UniProt Q9BUA3) -0.038
SPIRE1 (UniProt Q08AE8) 0.042
SPINT1 (UniProt O43278) 0.033
SSBP4 (UniProt Q9BWG4) 0.03
SPATA33 isoform 2 (UniProt Q96N06) -0.138
STAG1 (UniProt Q8WVM7) 0.033
SPATS2L isoform 2 (UniProt Q9NUQ6) 0.121
SPATA7 (UniProt Q9P0W8) 0.017
SPG11 (UniProt Q96JI7) 0.05
SPTBN1 isoform 3 (UniProt Q01082) 0.042
SRP9 (UniProt P49458) -0.01

compound: NC1(c2ccc(-c3nc4ccn5c(=O)[nH]nc5c4cc3-c3ccccc3)cc2)CCC1; test: as above
Summary of the method: as §1

log2 fold change, inactive:
STAT3 isoform 2 (UniProt P40763) -0.035
SPOUT1 (UniProt Q5T280) 0.012
SRSF7 (UniProt Q16629) 0.034
SREK1IP1 (UniProt Q8N9Q2) -0.002
SPTAN1 (UniProt Q13813) 0.008
SSX2 (UniProt Q16385) 0.082
SPTY2D1 (UniProt Q68D10) -0.043
STARD3NL (UniProt O95772) 0.009
SPATS2 (UniProt Q86XZ4) -0.013
SPG21 (UniProt Q9NZD8) 0.024
STARD9 (UniProt Q9P2P6) -0.04
STAMBP (UniProt O95630) -0.027
SSU72 (UniProt Q9NP77) 0.041
SPINDOC (UniProt Q9BUA3) 0.027
SPIRE1 (UniProt Q08AE8) -0.01
SPINT1 (UniProt O43278) 0.061
ST3GAL4 isoform 4 (UniProt Q11206) -0.738
STAG1 (UniProt Q8WVM7) -0.017
SS18L1 (UniProt O75177) 0.052
ST6GALNAC1 (UniProt Q9NSC7) -0.074
SPATS2L isoform 2 (UniProt Q9NUQ6) 0.09
SPATA7 (UniProt Q9P0W8) -0.115
SPG11 (UniProt Q96JI7) -0.046
STAU1 isoform 3 (UniProt O95793) -0.047
STAP1 (UniProt Q9ULZ2) -0.09
STAR (UniProt P49675) -0.146
SPTBN1 isoform 3 (UniProt Q01082) -0.166
SRP9 (UniProt P49458) 0.007
